Reference: article PMC12948423
Results are given in words; binding and its absence hold for the method and conditions named. Binding seen in cells or lysates may run through a third protein. Some results given as binding are weak or reduced against the parent protein; the word gives no strength. Where a sequence is shown, tags or fusion partners need not be part of it.

Amino acid sequences for entries named in this document (tags omitted). A change or cut given only in a name is not applied to a line headed by its entry. Residues count along the entry.
UniProt P08758: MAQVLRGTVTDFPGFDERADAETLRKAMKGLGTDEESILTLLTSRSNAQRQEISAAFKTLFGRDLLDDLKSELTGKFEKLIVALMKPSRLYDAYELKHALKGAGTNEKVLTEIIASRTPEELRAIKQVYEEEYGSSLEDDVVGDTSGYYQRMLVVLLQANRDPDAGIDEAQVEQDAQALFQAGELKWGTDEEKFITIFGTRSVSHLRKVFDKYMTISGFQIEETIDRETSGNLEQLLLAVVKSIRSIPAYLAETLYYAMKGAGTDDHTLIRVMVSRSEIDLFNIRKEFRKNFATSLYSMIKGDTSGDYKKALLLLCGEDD
UniProt P14625, residues 22-803: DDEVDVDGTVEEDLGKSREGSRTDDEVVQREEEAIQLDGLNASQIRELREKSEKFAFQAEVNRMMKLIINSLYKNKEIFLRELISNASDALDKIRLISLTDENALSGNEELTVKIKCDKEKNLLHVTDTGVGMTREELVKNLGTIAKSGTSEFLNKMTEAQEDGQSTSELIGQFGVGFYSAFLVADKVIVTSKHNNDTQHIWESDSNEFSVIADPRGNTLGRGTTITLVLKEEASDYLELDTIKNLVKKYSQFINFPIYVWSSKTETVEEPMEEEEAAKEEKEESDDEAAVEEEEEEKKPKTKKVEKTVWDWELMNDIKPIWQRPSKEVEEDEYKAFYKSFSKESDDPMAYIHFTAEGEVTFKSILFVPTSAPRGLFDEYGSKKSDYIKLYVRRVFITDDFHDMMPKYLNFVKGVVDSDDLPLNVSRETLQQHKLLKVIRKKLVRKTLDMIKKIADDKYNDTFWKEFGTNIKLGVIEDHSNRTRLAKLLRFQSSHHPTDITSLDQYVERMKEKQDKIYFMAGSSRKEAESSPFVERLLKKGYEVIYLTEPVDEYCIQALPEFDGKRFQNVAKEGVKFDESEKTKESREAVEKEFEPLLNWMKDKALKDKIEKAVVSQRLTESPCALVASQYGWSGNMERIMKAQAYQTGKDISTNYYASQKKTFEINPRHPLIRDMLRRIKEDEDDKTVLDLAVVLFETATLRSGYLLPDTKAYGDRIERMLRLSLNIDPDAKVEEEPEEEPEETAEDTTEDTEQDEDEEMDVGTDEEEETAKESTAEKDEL
UniProt P05556: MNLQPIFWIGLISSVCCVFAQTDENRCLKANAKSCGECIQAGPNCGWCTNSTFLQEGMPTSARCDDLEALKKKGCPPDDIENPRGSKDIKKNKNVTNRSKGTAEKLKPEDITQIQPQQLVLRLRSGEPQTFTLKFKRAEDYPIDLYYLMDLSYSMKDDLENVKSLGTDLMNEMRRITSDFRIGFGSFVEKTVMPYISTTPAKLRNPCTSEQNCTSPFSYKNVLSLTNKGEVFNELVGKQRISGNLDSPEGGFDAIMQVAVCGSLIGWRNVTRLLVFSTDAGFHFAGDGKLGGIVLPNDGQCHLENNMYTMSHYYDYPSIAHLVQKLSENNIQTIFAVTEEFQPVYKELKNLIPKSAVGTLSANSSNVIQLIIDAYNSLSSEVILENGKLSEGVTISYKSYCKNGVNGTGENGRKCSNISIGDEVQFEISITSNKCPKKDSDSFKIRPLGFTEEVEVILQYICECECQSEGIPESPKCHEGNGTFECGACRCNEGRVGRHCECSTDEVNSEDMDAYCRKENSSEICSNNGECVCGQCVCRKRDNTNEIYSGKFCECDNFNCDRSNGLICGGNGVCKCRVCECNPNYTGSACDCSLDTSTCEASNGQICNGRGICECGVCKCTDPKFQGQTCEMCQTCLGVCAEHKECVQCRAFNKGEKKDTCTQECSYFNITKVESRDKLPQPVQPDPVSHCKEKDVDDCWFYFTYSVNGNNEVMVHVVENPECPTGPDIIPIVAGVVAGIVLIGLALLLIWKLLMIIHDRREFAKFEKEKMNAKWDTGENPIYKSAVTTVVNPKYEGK

biological target: T1, canonical FNDC4 protein (fibronectin III domain containing 4), Myc-FLAG-tagged (human) (UniProt Q9H6D8); assay: co-IP; Myc-FLAG-tagged FNDC4 (canonical or truncated) or empty vector overexpressed in iPSC-derived NPCs; precipitated with anti-MYC magnetic beads; partners detected by Western blot
T1 sequence: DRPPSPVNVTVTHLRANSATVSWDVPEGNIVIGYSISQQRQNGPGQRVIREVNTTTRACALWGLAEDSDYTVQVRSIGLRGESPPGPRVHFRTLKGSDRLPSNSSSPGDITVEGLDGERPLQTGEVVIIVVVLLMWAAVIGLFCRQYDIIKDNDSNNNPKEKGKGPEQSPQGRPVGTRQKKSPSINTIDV

binding, binds:
ANXA5 (from UniProt P08758 1-320)
HSP90B1 (from UniProt P14625 22-803)
integrin subunit β-1 (ITGB1) (from UniProt P05556 21-798)
